Laboratory results as given in PMC11696715.

Protein sequences, listed by entry. Tags and fused reporters are not part of them.
UniProt P63330: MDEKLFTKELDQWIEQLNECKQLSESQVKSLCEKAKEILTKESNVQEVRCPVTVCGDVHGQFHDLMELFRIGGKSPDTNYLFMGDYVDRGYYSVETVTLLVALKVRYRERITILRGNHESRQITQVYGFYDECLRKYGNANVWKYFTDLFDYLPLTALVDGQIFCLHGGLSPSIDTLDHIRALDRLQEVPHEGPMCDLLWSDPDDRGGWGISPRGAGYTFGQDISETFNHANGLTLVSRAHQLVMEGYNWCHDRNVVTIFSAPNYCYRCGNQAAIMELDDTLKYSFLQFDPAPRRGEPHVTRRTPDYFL

Biological target: T1, Flag-MYSM1 (UniProt Q69Z66)
T1 sequence: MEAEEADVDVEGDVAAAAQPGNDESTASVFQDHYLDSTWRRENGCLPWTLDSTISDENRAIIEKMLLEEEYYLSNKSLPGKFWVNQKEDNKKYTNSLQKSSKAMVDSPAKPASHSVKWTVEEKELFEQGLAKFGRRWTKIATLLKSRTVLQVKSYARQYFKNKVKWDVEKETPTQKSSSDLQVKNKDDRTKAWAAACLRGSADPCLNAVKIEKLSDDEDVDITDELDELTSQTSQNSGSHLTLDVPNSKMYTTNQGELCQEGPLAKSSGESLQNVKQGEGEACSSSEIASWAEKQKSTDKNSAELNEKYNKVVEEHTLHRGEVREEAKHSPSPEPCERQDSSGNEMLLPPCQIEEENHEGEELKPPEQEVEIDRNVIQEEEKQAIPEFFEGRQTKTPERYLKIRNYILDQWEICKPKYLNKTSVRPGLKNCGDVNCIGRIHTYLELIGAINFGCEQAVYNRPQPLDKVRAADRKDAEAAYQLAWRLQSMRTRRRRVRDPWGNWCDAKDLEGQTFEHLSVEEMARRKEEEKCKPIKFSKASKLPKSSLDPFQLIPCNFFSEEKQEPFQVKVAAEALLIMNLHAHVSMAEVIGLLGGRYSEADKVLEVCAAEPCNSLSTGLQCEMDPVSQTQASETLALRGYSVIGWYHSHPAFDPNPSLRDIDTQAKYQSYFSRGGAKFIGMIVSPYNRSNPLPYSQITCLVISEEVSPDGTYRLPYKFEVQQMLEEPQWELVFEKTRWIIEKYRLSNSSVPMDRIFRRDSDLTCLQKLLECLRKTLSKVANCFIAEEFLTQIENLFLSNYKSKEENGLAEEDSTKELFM
Assay: affinity purification with mass spectrometry; chondrocytes transfected with Flag-Mysm1 plasmids; immunoprecipitated with an anti-Flag antibody overnight; LC-MS/MS (Q Exactive HF-X)

binding: binds
Substance: Ppp2ca (PP2Ac), catalytic subunit (C subunit) of protein phosphatase 2A (from UniProt P63330 1-309) (enzyme)

Results are given in words; binding and its absence hold for the method and conditions named. In cells and extracts the contact can be indirect. Here binding means that the protein was enriched with, or labelled near, the bait; the list need not be complete. Where a sequence is shown, tags or fusion partners need not be part of it.
